Experimental data reported in article PMC9589254 (Frontiers in Molecular Biosciences, 2022).
Some peptides are written in HELM: one residue between dots, names in brackets for other building blocks, links after the first $.

Experiment: general procedure: Fmoc solid-phase peptide synthesis; rink-amide resin (GLC, Shanghai, China); HBTU/DIPEA in DMF
Details: whole synthesis

Substance	final HPLC purity (run 1) [%]	final HPLC purity (run 2) [%]
PEPTIDE1{K.E.R.T.S.R.[am]}$$$$V2.0	99.4	98 ± 1.0
PEPTIDE1{S.M.D.M.S.I.E.[am]}$$$$V2.0	95.1	94 ± 1.5
